Data: patent publication US20190030126A1, “Inhibitors of the Interaction BCL-2 L10 / IP3 Receptors” (Universite Claude Bernard - Lyon 1, priority 2016, published 2019)

Legend:
HA-Beclin1 = assay: streptavidin pull-down from extracts of transfected HeLa cells
[1] = molecular target: Flag-Nrz (ortholog from zebrafish) (zebrafish (Danio rerio)); assay: as above

## MADPLRERTELLLADYLGYCARE (biotin-labelled (position not given)) [biotin-labelled Nrh 1-23 wild-type peptide]
HA-Beclin1
  binding: no binding (tested: 5 µg of biotin-labelled peptide)
[1]
  binding: no binding (tested: 5 µg of biotin-labelled peptide)

No constants are given. Whether binding was seen depends on the method and setting. Binding seen in cells or lysates may run through a third protein.
